From PMC3912138
Positions count from the first letter of the chain named. No constants are given. Whether binding was seen depends on the method and setting. In cells and extracts the contact can be indirect. For part of these data: Binding calls can cover weak binding; strength is not graded here. Where a sequence is shown, tags or fusion partners need not be part of it.

Experiments:
[1] = biological target: T1, CERKL-C125W-Flag (pathological point mutant of CERKLa) (human) (UniProt Q49MI3); experiment: co-IP; Flag immunoprecipitation (M2 Flag beads, 1 h, 4°C; lysis buffer 1% Triton X-100, 150 mM NaCl, 20 mM Tris pH 7.4) from lysates of transfected HEK 293T cells, Western blot of endogenous partners; in some panels cells treated with cycloheximide or colchicine, and lysates treated or not with RNase A (100 µg/mL) at 150, 450 or 600 mM NaCl
T1 sequence: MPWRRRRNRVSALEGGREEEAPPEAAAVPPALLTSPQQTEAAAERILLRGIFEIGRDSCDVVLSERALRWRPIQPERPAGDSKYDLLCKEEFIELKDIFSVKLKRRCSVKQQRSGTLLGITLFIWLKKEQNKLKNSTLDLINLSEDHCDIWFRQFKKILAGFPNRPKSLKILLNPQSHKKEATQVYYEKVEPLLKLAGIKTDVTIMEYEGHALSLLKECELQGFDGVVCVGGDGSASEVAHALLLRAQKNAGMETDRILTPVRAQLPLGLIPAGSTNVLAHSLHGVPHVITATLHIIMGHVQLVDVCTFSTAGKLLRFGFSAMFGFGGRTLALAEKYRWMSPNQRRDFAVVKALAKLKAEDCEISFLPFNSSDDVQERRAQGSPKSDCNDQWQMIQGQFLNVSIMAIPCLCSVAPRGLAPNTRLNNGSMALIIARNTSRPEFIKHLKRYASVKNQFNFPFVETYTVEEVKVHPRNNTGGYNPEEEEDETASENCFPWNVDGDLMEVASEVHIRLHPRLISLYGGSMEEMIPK

[2] = biological target: T2, CERKL-Flag (CERKLa, full length CERKL isoform of 532 amino acids, wild type) (human) (UniProt Q49MI3); experiment: co-IP; Flag immunoprecipitation of CERKL-Flag in the presence of 1 µg/ml colchicine (disrupts microtubules), Western blot of alpha and beta-tubulin
T2 sequence: T1 sequence with W125C

[3] = biological target: T2, CERKL-Flag (CERKLa, full length CERKL isoform of 532 amino acids, wild type) (human); experiment: co-IP; Flag immunoprecipitation (M2 Flag beads, 1 h, 4°C; lysis buffer 1% Triton X-100, 150 mM NaCl, 20 mM Tris pH 7.4) from lysates of transfected HEK 293T cells, Western blot of endogenous partners; in some panels cells treated with cycloheximide or colchicine, and lysates treated or not with RNase A (100 µg/mL) at 150, 450 or 600 mM NaCl

Substance	binding [1]	binding [2]	binding [3]
HSP70 (human (endogenous in HEK-293T))	binds	–	–
PABP (poly(A) binding protein) (human (endogenous in HEK-293T))	binds	–	–
alpha-tubulin (human (endogenous in HEK-293T))	–	no binding (only with 1 µg/ml colchicine)	binds
beta-tubulin (human (endogenous in HEK-293T))	–	no binding (only with 1 µg/ml colchicine)	binds
